PubChem BioAssay AID1259308 – NCATS – 2017

Aim: 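Candidate targets for better recombinant protein yield in mammalian cells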 (primary screen)
Cell system: human HEK293 embryonic kidney cells stably expressing firefly luciferase (HEK-CMV-Luc2-Hygro)
Reagent: single siRNA against human genes, 0.8 pmol siRNA per well
Duration: 72 h
Detection: 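Reporter luminescence and viable-cell signal on separate replicate plates, given as percent of non-targeting control and median/MAD z-scores, plus per-cell luciferase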
Reading the numbers: total luciferase, z-score and total luciferase, % of control: higher = more reporter protein produced
Call rule: 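Active when the median/MAD z-score for overall luciferase is greater than 3; a gene was taken forward for validation with new siRNAs if at least two of its three siRNAs passed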
Calls: active = raised luciferase; inactive = no rise
Shown is a random part of about 59,000 reagents tested. Over the whole deposit, about 1,510 (2.6%) got an active call. 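Calls use total luciferase alone and ignore viability, so some active siRNAs may act by altering cell number.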 A number with no mark means an inactive call. The numbers tell different reagents against one gene apart. Not all columns of the deposit are shown. Reagent sequences are not shown.

Target gene | reagent | total luciferase, z-score | total luciferase, % of control
HSPA4L | 1 | -0.424 | 73.5
HSPA4L | 2 | 0.379 | 89.4
HSPA4L | 3 | 0.505 | 91.9
PTPDC1 | 1 | -0.569 | 70.6
PTPDC1 | 2 | -0.399 | 74
PTPDC1 | 3 | -0.195 | 78
MBD2 | 1 | -1.99 | 42.3
MBD2 | 2 | 1.04 | 102
MBD2 | 3 | -0.399 | 74
SLC35C1 | 1 | 0.315 | 88.2
SLC35C1 | 2 | -0.822 | 65.5
SLC35C1 | 3 | -0.526 | 71.4
LY96 | 1 | 1.36 | 109
LY96 | 2 | 0.377 | 89.4
LY96 | 3 | -0.968 | 62.6
EFCAB11 | 1 | -1.92 | 43.8
EFCAB11 | 2 | -0.253 | 76.9
EFCAB11 | 3 | -0.39 | 74.1
OR10T2 | 1 | -0.211 | 77.7
OR10T2 | 2 | -0.915 | 63.7
OR10T2 | 3 | 2.25 | 127
DYRK4 | 1 | -0.857 | 64.8
DYRK4 | 2 | -0.884 | 64.3
DYRK4 | 3 | 0.514 | 92.1
GSK3A | 1 | -0.154 | 78.8
GSK3A | 2 | 0.315 | 88.1
GSK3A | 3 | 0.182 | 85.5
ASXL2 | 1 | 0.74 | 96.6
ASXL2 | 2 | 1.03 | 102
ASXL2 | 3 | -0.207 | 77.8
NUDT22 | 1 | 1.4 | 110
NUDT22 | 2 | 2.36 | 129
NUDT22 | 3 | -0.0825 | 80.2
SLC2A13 | 1 | -1.47 | 52.7
SLC2A13 | 2 | -0.796 | 66.1
SLC2A13 | 3 | -0.676 | 68.4
C6orf118 | 1 | 1.02 | 102
C6orf118 | 2 | -0.171 | 78.5
C6orf118 | 3 | -0.464 | 72.7
